# Primary screen of a compound library

The values are deposited in ChEMBL (CHEMBL3988442, “University of Dundee, Small-Polar-MMV Screening Library” (2021)).

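Whole-cell assay for inhibitors of Mycobacterium tuberculosis growth, labelled Cornell in the record; the read-out is not stated. The concentration is filed as 10 mM, unlikely as a test dose, so the dose is not known. The record gives no direction; compounds strong in two other growth screens of this library score well above the rest, so higher reads as stronger inhibition. Of about 53,000 compounds tested this way, about 900 (1.7%) reached 50% or more in at least one test.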

The filed quantity is “Percent Effect” (%).
The record does not define 0% and 100%; most values in the screen are far below 50% and negative numbers occur (in some assays of this library far below -100).
The compounds are a random part of those screened.

{"compound": "O=C(O)C(F)(F)F.O=C(O)C(F)(F)F.O=C1Nc2ccccc2C12CCN(Cc1ccccn1)CC2", "Percent Effect": 34.81}
{"compound": "Cc1ccc2oc(=O)n(CCC(=O)N3CCC4(CN(C)C(=O)O4)C3)c2c1", "stereo": "centres undefined", "Percent Effect": -32.31}
{"compound": "COc1cccc(C(=O)NCC(O)c2cccs2)c1", "stereo": "centres undefined", "Percent Effect": -5.952}
{"compound": "CCCS(=O)(=O)N1CCN(c2cc(-n3cnc(C)c3C)ncn2)CC1", "Percent Effect": -1.344}
{"compound": "OC1(CNCc2ccc(F)c(C(F)(F)F)c2)CCOC1", "stereo": "centres undefined", "Percent Effect": 25.06}
{"compound": "COc1ccccc1N1CCN(C(=O)COc2c(C)occc2=O)CC1", "Percent Effect": 24.11}
{"compound": "CN(C)c1ncccc1CNC(=O)N(Cc1ccccc1F)C1CC1", "Percent Effect": 13.77}
{"compound": "CN(C)CCN1CCOCC2(CCCN(C(=O)c3ccoc3)C2)C1.O=C(O)C(F)(F)F.O=C(O)C(F)(F)F", "stereo": "centres undefined", "Percent Effect": 6.072}
{"compound": "CCc1ncnc2c1CCN(C(=O)c1ccccn1)CC2.O=C(O)C(F)(F)F", "Percent Effect": 10.75}
{"compound": "O=C(NCc1ccccc1CO)C1COc2ccccc21", "stereo": "centres undefined", "Percent Effect": 29.01}
{"compound": "COc1ccc(-c2nnsc2C(=O)N2CCC(C(N)=O)CC2)cc1", "Percent Effect": 40.91}
{"compound": "CCOC(=O)N1CCC(Nc2cc(CC)nc3c(C)c(C)nn23)CC1", "Percent Effect": 24.96}
{"compound": "c1cncc(N2CCC(c3ccncc3)CC2)c1", "Percent Effect": 34.28}
{"compound": "[H][C@]12C[C@H](NC(=O)c3ccnn3C)[C@@]1([H])CN(S(=O)(=O)c1ccc(C)cc1)C2", "Percent Effect": -17.96}
{"compound": "Cc1cc(CN(C)C2CCCN(Cc3noc(C4CC4)n3)C2)no1", "stereo": "centres undefined", "Percent Effect": -6.062}
{"compound": "CCOc1ccc(NC(=O)N2CCNC(=O)C2)c(C(F)(F)F)c1", "Percent Effect": -16.84}
{"compound": "COC(=O)c1ccc(N2CCN(C(=O)c3ccn(C)c(=O)c3)CC2)cc1", "Percent Effect": -0.1443}
{"compound": "COCCC1(CO)CCCN(CCCc2ccccc2)C1", "stereo": "centres undefined", "Percent Effect": -8.968}
{"compound": "O=C(O)C(F)(F)F.[H][C@@]12OCCN(C(=O)COc3ccccc3)[C@@]1([H])CC[C@H]2OCCN(C)C", "Percent Effect": 18.7}
{"compound": "CCN1Cc2c(C(=O)NC(C)C)ncn2-c2ccccc2S1(=O)=O", "Percent Effect": 7.745}
{"compound": "CCN1C(=O)C2(CCOCC2)c2cc(NC(=O)c3cc(C)n[nH]3)ccc21", "Percent Effect": 14.23}
{"compound": "O=C(CN1CCN(C(=O)c2ccccc2)CC1)Nc1ncc(Br)cc1Br", "Percent Effect": 1.054}
{"compound": "O=C(O)C(F)(F)F.[H][C@@]12CCCO[C@]1([H])[C@H](NS(C)(=O)=O)CN(Cc1ccc(C)o1)C2", "Percent Effect": 3.663}
{"compound": "CCc1ncc(CN2CCC(CCc3ccccc3)CC2)cn1", "Percent Effect": -11.26}
{"compound": "Cc1cc(C)nc(C2CCN(C3CCCCC3)C2)n1", "stereo": "centres undefined", "Percent Effect": 13.6}
{"compound": "CC(C)(CO)N1CCN(S(=O)(=O)CCCF)CC1", "Percent Effect": 6.337}
{"compound": "c1c(CN2CCCCC2)nc2n1CCN(CC1CC1)C2", "Percent Effect": -13.79}
{"compound": "[H][C@@]12COC[C@]1(CNS(C)(=O)=O)CN(C(=O)c1occc1C)C2", "Percent Effect": -27.22}
{"compound": "CN1CCC(c2nnc3n2CCN(S(=O)(=O)c2ccccc2)C3)CC1", "Percent Effect": 4.907}
{"compound": "CCN(CC)CCC(=O)N1CCc2c(nc(N(C)C)nc2N(C)C)C1", "Percent Effect": -4.537}
{"compound": "Cn1nc(Cn2cccc2)c2c1CN(Cc1ccsc1)C2.O=C(O)C(F)(F)F", "Percent Effect": 31.04}
{"compound": "Cc1cc(N2CCN(C(=O)c3cc(Cl)c[nH]3)CC2)nc(C(C)C)n1", "Percent Effect": 23.7}
{"compound": "CC(C)c1nnc(N2C[C@@H](CN(C)CCO)[C@@H](CO)C2)s1", "Percent Effect": -4.174}
{"compound": "[H][C@@]12OCCC[C@]1([H])N(S(C)(=O)=O)C[C@H]2NC(=O)c1ccno1", "Percent Effect": 3.927}
{"compound": "CC(C)N(C)S(=O)(=O)N1CCN(Cc2ccco2)CC1", "Percent Effect": 20.46}
{"compound": "c1ccc(OCc2nc(CNCCn3cccn3)cs2)cc1", "Percent Effect": -6.946}
{"compound": "COCCN(C(=O)c1ccsc1)c1ccc(C#N)cc1", "Percent Effect": 17.01}
{"compound": "CNC(=O)c1ccc(=O)n(Cc2csc(C(C)(C)C)n2)c1", "Percent Effect": -21.45}
{"compound": "Cc1nc(C)n(CCNC2CCN(c3ncnc4c(C)csc34)CC2)n1", "Percent Effect": 2.013}
{"compound": "O=C(NCC(=O)N1CCc2ccccc2C1)c1cnccn1", "Percent Effect": 24.99}
{"compound": "COC(=O)C(NC(=O)C(C)C)c1cc(F)ccc1F", "stereo": "centres undefined", "Percent Effect": 35.55}
{"compound": "CC1CN(CC(=O)NCc2cccs2)CCN1c1nccs1", "stereo": "centres undefined", "Percent Effect": 14.49}
{"compound": "Cc1noc(C)c1CN1CCN(CCN(C)C)c2ncccc2C1.O=C(O)C(F)(F)F.O=C(O)C(F)(F)F.O=C(O)C(F)(F)F", "Percent Effect": -14.39}
{"compound": "CCCc1nnnn1Cc1cn2c(C)cccc2n1", "Percent Effect": 7.637}
{"compound": "Cc1cccc(C(=O)N2CCC[C@]3(C[C@@H](OCC4CC4)CO3)C2)n1.O=C(O)C(F)(F)F", "Percent Effect": 21.84}
{"compound": "O=C1CC2(CCN(C(=O)Cc3cc4c(cc3Cl)OCCO4)C2)C(=O)N1", "stereo": "centres undefined", "Percent Effect": -39.02}
{"compound": "Cc1cc(-c2ccc(=O)n(C3CCN(S(=O)(=O)N(C)C)CC3)n2)c(C)o1", "Percent Effect": 16.54}
{"compound": "Cc1ccc(N2CCN(C(=O)[C@@H]3CCC(=O)N3)CC2=O)cc1", "Percent Effect": -5.604}
{"compound": "O=C(C1CCC1)N1CCc2[nH]cnc2C12CCN(C1CCOCC1)CC2", "Percent Effect": 27.46}
{"compound": "CC(C)N1C(=O)CN(CCOCCO)CC1(C)C", "Percent Effect": 19.06}
{"compound": "O=C1NC[C@]2(CC[C@@H](C(=O)N3CCC(O)CC3)CC2)Oc2ccccc21", "Percent Effect": 1.496}
{"compound": "CC(CNC(=O)c1ccc(F)cc1Cl)N1CCCC1", "stereo": "centres undefined", "Percent Effect": 19.4}
{"compound": "O=C(Cc1cccs1)NCC1COCc2c(-c3ccoc3)nnn2C1", "stereo": "centres undefined", "Percent Effect": 16.97}
{"compound": "COCCC(=O)N1C[C@@H](c2cccc(OC)c2)[C@@]2(CCCCC(=O)N2)C1", "Percent Effect": 2.442}
{"compound": "CC(=O)N1CCC(N2CC[C@H](c3nc4cc(C)ccc4o3)C2)CC1", "Percent Effect": -6.081}
{"compound": "O=C(O)C(F)(F)F.O=C(O)C(F)(F)F.[H][C@@]12CCN(Cc3ccc(F)cc3)[C@]1([H])CC[C@H](COCc1cccnc1)O2", "Percent Effect": 29.53}

Some entries from above, unchanged:

compound	Percent Effect
O=C1CC2(CCN(C(=O)Cc3cc4c(cc3Cl)OCCO4)C2)C(=O)N1 (centres undefined)	-39.02
c1c(CN2CCCCC2)nc2n1CCN(CC1CC1)C2	-13.79
COC(=O)c1ccc(N2CCN(C(=O)c3ccn(C)c(=O)c3)CC2)cc1	-0.1443
COC(=O)C(NC(=O)C(C)C)c1cc(F)ccc1F (centres undefined)	35.55